In patent publication US20160031996A1 (CSL, published 2016):
These are yes or no findings as the source states them, for the method shown. Some binding calls cover weakened binding; strength is not graded here.

Tests used:
[1] = molecular target: T1, chimera of human IL-3Rα residues 1-204 with GM-CSFRα domains (human) (UniProt P15509); test: flow cytometry, transfected 293F cells
T1 sequence: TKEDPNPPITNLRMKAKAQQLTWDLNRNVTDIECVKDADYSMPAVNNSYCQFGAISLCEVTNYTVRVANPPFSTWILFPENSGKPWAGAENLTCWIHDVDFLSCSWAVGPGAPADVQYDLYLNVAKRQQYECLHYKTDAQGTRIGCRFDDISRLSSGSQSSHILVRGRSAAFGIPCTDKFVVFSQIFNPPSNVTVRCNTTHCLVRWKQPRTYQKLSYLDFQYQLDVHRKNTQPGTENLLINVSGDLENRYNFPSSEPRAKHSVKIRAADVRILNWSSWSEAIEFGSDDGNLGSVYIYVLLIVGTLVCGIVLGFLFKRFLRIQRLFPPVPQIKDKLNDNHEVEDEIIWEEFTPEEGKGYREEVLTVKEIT

[2] = molecular target: T2, chimera of human IL-3Rα residues 1-100 with GM-CSFRα domains (human) (UniProt P15509); test: flow cytometry, transfected 293F cells
T2 sequence: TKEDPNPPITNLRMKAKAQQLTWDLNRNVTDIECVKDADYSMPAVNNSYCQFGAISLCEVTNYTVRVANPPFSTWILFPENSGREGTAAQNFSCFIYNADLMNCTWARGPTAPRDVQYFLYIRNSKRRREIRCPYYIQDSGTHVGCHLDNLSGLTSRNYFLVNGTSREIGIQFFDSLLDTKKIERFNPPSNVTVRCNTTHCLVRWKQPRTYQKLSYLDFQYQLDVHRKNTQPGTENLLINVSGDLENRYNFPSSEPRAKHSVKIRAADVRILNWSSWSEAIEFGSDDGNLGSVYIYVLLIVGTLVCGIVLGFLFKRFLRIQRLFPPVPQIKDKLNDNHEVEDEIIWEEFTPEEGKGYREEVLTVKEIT

binding [1]: binds
binding [2]: binds
B1: monoclonal antibody 7G3 (antibody, V domains shown)
VH: EVQLQQSGPELVKPGASVKMSCKASGYTFTDYYMKWVKQSHGKSLEWIGDIIPSNGATFYNQKFKGKATLTVDRSSSTAYMHLNSLTSEDSAVYYCTRSHLLRASWFAYWGQGTLVTVSA
VL: DFVMTQSPSSLTVTAGEKVTMSCKSSQSLLNSGNQKNYLTWYLQKPGQPPKLLIYWASTRESGVPDRFTGSGSGTDFTLTISSVQAEDLAVYYCQNDYSYPYTFGGGTKLEIKR
notes: mouse monoclonal antibody (hybridoma ATCC HB-12009)
